In article PMC8450094 one finds binding result and Kd data, which are given here for three sequences.

A word on the pKd: it is the negative decadic logarithm of the Kd, by convention in mol/L.

For data set [1], the target named is T1, SNM1B/Apollo WT (Homo sapiens) (UniProt Q9H816).
T1 sequence (looked up): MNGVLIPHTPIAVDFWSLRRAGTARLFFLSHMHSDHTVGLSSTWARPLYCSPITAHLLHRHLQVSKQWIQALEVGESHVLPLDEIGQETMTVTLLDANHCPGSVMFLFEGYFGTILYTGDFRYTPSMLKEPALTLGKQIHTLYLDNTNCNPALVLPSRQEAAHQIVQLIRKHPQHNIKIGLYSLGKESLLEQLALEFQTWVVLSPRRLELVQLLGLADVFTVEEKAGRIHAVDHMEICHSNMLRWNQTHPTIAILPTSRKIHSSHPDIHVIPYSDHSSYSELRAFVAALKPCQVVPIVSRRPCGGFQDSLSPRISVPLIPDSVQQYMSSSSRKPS
Kind of data set: EMSA. The note with it: 1 nM DNA, 37 C, 5 min, EMSA: 1 nM DNA, 10% native PAGE, recombinant protein, residues 1-335, single-stranded DNA.

In data set [2] the target is T1, SNM1B/Apollo WT (Homo sapiens). Put plainly: fluorescence anisotropy. The conditions noted are these: 10 nM DNA; 5' phosphate; FP: 20 mM HEPES pH 7.5, 50 mM KCl, 0.5 mM TCEP, room temperature, 5 min, DNA 25 nM (Methods) or 50 nM (legends; 10 nM in Suppl. Fig. 14C); recombinant protein; residues 1-335; label: internal fluorescein-dT at position 13; single-stranded DNA. In general terms: Fluorescence polarisation rises when a labelled molecule tumbles more slowly, as on binding a larger partner.

For data set [3], the target named is T2, SNM1B H61Y (Homo sapiens) (UniProt Q9H816).
T2 sequence (looked up): T1 sequence (looked up) with H61Y
Put plainly: fluorescence anisotropy. The note with it: 10 nM DNA; 5' phosphate; FP: 20 mM HEPES pH 7.5, 50 mM KCl, 0.5 mM TCEP, room temperature, 5 min, DNA 25 nM (Methods) or 50 nM (legends; 10 nM in Suppl. Fig. 14C); recombinant protein; residues 1-335; protein details: C-terminal His10-FLAG, TEV cleavage stated; label: internal fluorescein-dT at position 13; single-stranded DNA.

Substitutions are numbered along the chain they refer to. pKd: −log10 of the molar value. Construct, isoform or probe ends are uncertain for at least one entry. For some of these results: The comparison behind a weaker result is the experiment's own reference, which may not be listed here. Protein sequences can lack the tags named with them.

“ATAATAGATGATCAAATTAT [21 nt ssDNA 5' hydroxyl (oligo 8)]”: the binding result in data set [1] (5' phosphate preferred, 5' OH) is recorded as “binds more weakly”. Consider “ATAATAGATGATCAAATTAT [21 nt ssDNA 5' phosphate (oligo 7)]”, for which the binding result in data set [1] (digestion products also seen, 5' phosphate) is given as “binds”. As for “ATAATTTGATCATCTATTATA [20 nt ssDNA FP probe (probably oligo 19)]”, the pKd in data set [2] was 6.81; in data set [3], 6.76.
